The target in one assay is T1, Flag-KDM4A (UniProt O75164).
T1 sequence: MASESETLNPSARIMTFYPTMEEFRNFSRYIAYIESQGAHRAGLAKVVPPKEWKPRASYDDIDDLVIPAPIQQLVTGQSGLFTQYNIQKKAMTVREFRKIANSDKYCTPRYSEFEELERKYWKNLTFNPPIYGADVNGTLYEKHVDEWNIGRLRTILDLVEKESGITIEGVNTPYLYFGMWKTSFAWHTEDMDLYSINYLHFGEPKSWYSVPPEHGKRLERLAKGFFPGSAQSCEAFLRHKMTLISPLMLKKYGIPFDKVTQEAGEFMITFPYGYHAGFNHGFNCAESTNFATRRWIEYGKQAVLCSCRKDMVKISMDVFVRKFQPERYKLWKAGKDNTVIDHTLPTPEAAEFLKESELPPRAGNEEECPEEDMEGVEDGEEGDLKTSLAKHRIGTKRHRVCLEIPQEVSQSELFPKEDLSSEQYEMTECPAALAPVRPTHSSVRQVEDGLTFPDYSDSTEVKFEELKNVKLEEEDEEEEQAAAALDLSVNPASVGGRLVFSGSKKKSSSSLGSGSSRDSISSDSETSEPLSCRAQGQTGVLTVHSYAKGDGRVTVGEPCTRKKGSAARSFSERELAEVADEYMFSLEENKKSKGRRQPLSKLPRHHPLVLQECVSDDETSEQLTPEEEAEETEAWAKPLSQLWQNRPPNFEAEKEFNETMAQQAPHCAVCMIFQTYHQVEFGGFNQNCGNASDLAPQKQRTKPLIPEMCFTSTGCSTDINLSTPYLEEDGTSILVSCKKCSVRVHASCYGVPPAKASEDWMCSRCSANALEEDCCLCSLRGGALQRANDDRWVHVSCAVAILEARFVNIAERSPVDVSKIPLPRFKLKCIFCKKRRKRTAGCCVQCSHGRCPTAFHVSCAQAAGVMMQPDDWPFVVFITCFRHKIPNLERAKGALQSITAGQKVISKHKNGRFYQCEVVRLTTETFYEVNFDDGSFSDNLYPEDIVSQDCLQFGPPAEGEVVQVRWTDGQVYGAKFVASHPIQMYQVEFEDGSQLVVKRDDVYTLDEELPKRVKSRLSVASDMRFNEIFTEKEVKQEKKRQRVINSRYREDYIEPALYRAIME
As to the kind of experiment: co-IP; HEK293T cells stably co-transfected with Flag-KDM4A and HA-YTHDC2, cross-linked with 1 mM DSP in PBS for 30 min; lysis in 50 mM Tris pH 7.4, 150 mM NaCl, 1% Triton X-100, 1% sodium deoxycholate, 0.1% SDS, 5 mM EDTA; anti-Flag, anti-HA or IgG on protein G magnetic beads, overnight at 4 °C; western blot.

Another assay deals with T2, Nluc-Kdm4a (UniProt Q8BW72).
T2 sequence: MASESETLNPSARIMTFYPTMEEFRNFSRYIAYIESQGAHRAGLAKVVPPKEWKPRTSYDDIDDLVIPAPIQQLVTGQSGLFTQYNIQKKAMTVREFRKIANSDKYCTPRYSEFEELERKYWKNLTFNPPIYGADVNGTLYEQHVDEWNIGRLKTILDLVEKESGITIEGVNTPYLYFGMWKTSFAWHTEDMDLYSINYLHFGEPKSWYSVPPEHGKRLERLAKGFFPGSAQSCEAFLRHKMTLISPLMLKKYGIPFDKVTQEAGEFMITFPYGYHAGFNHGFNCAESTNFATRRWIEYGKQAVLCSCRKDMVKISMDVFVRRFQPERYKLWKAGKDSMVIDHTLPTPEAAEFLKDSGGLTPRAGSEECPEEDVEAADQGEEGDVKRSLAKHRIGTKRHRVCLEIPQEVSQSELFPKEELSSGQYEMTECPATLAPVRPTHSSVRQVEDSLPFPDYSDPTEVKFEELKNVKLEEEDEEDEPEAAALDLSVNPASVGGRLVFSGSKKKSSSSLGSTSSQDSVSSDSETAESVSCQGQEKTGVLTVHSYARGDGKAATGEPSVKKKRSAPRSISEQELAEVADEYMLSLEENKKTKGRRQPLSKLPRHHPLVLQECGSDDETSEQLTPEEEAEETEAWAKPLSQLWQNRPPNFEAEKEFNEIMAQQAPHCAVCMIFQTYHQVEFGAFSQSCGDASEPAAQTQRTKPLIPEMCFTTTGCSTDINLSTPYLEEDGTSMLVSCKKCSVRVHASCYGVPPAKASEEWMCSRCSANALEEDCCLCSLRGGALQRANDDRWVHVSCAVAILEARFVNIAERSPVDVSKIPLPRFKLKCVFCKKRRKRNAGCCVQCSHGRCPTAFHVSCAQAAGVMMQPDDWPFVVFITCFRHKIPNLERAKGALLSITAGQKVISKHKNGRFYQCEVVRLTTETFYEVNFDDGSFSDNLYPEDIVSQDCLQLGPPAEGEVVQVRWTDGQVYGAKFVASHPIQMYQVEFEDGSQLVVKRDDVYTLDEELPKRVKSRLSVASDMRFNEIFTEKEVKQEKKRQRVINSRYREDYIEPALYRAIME
The experiment in a line: split reporter; split firefly luciferase complementation in Neuro-2a cells; plasmids co-transfected 1:1 (200 ng per well), read 36 h after transfection in imaging buffer with D-luciferin.

Results are given in words; binding and its absence hold for the method and conditions named. Binding seen in cells or lysates may run through a third protein. Some results given as binding are weak or reduced against the parent protein; the word gives no strength. Sequences can lack the tags named with a protein.

B1: HA-YTHDC2 (protein, UniProt Q9H6S0 1-1430)
chain: MSRPSSVSPRQPAPGGGGGGGPSPCGPGGGGRAKGLKDIRIDEEVKIAVNIALERFRYGDQREMEFPSSLTSTERAFIHRLSQSLGLVSKSKGKGANRYLTVKKKDGSETAHAMMTCNLTHNTKHAVRSLIQRFPVTNKERTELLPKTERGNVFAVEAENREMSKTSGRLNNGIPQIPVKRGESEFDSFRQSLPVFEKQEEIVKIIKENKVVLIVGETGSGKTTQIPQFLLDDCFKNGIPCRIFCTQPRRLAAIAVAERVAAERRERIGQTIGYQIRLESRVSPKTLLTFCTNGVLLRTLMAGDSTLSTVTHVIVDEVHERDRFSDFLLTKLRDLLQKHPTLKLILSSAALDVNLFIRYFGSCPVIYIQGRPFEVKEMFLEDILRTTGYTNKEMLKYKKEKQQEEKQQTTLTEWYSAQENSFKPESQRQRTVLNVTDEYDLLDDGGDAVFSQLTEKDVNCLEPWLIKEMDACLSDIWLHKDIDAFAQVFHLILTENVSVDYRHSETSATALMVAAGRGFASQVEQLISMGANVHSKASNGWMALDWAKHFGQTEIVDLLESYSATLEFGNLDESSLVQTNGSDLSAEDRELLKAYHHSFDDEKVDLDLIMHLLYNICHSCDAGAVLIFLPGYDEIVGLRDRILFDDKRFADSTHRYQVFMLHSNMQTSDQKKVLKNPPAGVRKIILSTNIAETSITVNDVVFVIDSGKVKEKSFDALNFVTMLKMVWISKASAIQRKGRAGRCRPGICFRLFSRLRFQNMLEFQTPELLRMPLQELCLHTKLLAPVNCPIADFLMKAPEPPPALIVRNAVQMLKTIDAMDTWEDLTELGYHLADLPVEPHLGKMVLCAVVLKCLDPILTIACTLAYRDPFVLPTQASQKRAAMLCRKRFTAGAFSDHMALLRAFQAWQKARSDGWERAFCEKNFLSQATMEIIIGMRTQLLGQLRASGFVRARGGGDIRDVNTNSENWAVVKAALVAGMYPNLVHVDRENLVLTGPKEKKVRFHPASVLSQPQYKKIPPANGQAAAIKALPTDWLIYDEMTRAHRIANIRCCSAVTPVTILVFCGPARLASNALQEPSSFRVDGIPNDSSDSEMEDKTTANLAALKLDEWLHFTLEPEAASLLLQLRQKWHSLFLRRMRAPSKPWSQVDEATIRAIIAVLSTEEQSAGLQQPSGIGQRPRPMSSEELPLASSWRSNNSRKSSADTEFSDECTTAERVLMKSPSPALHPPQKYKDRGILHPKRGTEDRSDQSSLKSTDSSSYPSPCASPSPPSSGKGSKSPSPRPNMPVRYFIMKSSNLRNLEISQQKGIWSTTPSNERKLNRAFWESSIVYLVFSVQGSGHFQGFSRMSSEIGREKSQDWGSAGLGGVFKVEWIRKESLPFQFAHHLLNPWNDNKKVQISRDGQELEPLVGEQLLQLWERLPLGEKNTTD
As to B1, the binding result in the assay with Flag-KDM4A is “binds”.

B2: Ythdc2-Cluc (protein, UniProt B2RR83 1-1445)
chain: MSRPSSVSPRPPAPSGGGTGGGGGGSGGGGGGGGGGPASCGPGGGGRAKGLKDIRIDEEVKIAVNIALERFRYGDQREMEFPSSLTSTERAFIHRLSQSLGLVSKSKGKGANRYLTVKKKDGSETAHAMMTCNLTHNTKHAVRSLIQRFPVTNKERTELLPKTERGNVFAVEAENREMSKTSGRLNNGIPQVPVKRGESEFDSFRQSLPVFEKQEEIVKIIKENKVVLIVGETGSGKTTQIPQFLLDDCFKNGIPCRIFCTQPRRLAAIAVAERVAAERRERIGQTIGYQIRLESRVSPKTLLTFCTNGVLLRTLMAGDSTLSTVTHVIVDEVHERDRFSDFLLTKLRDLLQKHPTLKLILSSAALDVNLFIRYFGSCPVIYIQGRPFEVKEMFLEDILRTTGYTNKEMLKYKKEKQREEKQQTTLTEWYSAQENTFKPESQRQRAVASVSEEYDLLDDGGDAVFSQLTEKDVNCLEPWLIKEMDACLSDIWLHKDVDAFAQVFHLILTENVSVDYRHSETSATALMVAAGRGFTSQVEQLISMGANVHSKASNGWMALDWAKHFGQTEIVDLLESYSASLEFGNLDESSLVQTNGNDLSAEDRELLKAYHHSFDDEKVDLDLIMHLLYNICHSCDAGAILIFLPGYDEIVGLRDRILFDDKRFADNTHRYQVFMLHSNMQTSDQKKVLKNPPAGVRKIILSTNIAETSITVNDVVFVIDSGKVKEKSFDALNFVTMLKMVWISKASAIQRKGRAGRCRPGICFRLFSRLRFQNMLEFQTPELLRMPLQELCLHTKLLAPVNCTIADFLMKAPEPPPALIVRNAVQMLKTIDAMDAWEDLTELGYHLADLPVEPHLGKMVLCAVVLKCLDPILTIACTLAYRDPFVLPTQASQKRAAMLCRKRFTAGTFSDHMALLRAFQAWQKARSDGWERAFCEKNFLSQATMEIIIGMRTQLLGQLRASGFVRARGGGDIRDVNTNSENWAVVKAALVAGMYPNLVHVDRENVILTGPKEKKVRFHPTSVLSQPQYKKIPPANGQAAAIQALPTDWLIYDEMTRAHRIANIRCCSAVTPVTVLVFCGPARLASNALQEPSSFRADGIPNDSSDSEMEDRTTANLAALKLDEWLNFKLEPEAASLLLQLRQKWHSLFLRRMRAPSKPWSQVDEATIRAIIAVLSTEEQSAGLQQPSGIGQRPRPMSSEELPLASSWRSNNSRKSTADTEFADGSTTGERVLMKSPSPALHPPQKYKDRGILHPKRSTDDRSDQSSVKSTDSSSYPSPCASPSPPSSGKGSKSPSPRPNMPIRYFIMKSSNLRNLEISQQKGIWSTTPSNERKLNRAFWESSMVYLVFSVQGSGHFQGFSRMSSEIGREKSQDWGSAGLGGVFKVEWIRKESLPFQFAHHLLNPWNDNKKVQISRDGQELEPQVGEQLLQLWERLPLGEKTTSD
Turning to B2, the binding result with Nluc-Kdm4a is on record as “binds”.
